The values below come from the supplement of paper PMC12067093, “Discovery and optimisation of a covalent ligand for TRIM25 and its application to targeted protein ubiquitination” (Chemical Science, 2025).

Protein sequences, listed by entry. Tags and fused reporters are not part of them. Lines headed by an entry give the natural chain unless they say otherwise; changes in a name come on top.
UniProt Q8NFH3: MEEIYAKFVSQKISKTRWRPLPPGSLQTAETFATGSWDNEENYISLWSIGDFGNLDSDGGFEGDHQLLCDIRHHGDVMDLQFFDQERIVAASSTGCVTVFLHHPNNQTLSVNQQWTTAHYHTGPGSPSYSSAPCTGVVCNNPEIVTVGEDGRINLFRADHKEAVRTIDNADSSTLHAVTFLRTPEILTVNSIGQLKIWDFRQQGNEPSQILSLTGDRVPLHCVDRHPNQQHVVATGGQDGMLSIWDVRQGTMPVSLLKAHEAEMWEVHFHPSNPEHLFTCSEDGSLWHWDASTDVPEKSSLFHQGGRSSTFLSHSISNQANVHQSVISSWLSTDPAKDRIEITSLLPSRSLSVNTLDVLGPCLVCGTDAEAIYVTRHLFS
UniProt P52948: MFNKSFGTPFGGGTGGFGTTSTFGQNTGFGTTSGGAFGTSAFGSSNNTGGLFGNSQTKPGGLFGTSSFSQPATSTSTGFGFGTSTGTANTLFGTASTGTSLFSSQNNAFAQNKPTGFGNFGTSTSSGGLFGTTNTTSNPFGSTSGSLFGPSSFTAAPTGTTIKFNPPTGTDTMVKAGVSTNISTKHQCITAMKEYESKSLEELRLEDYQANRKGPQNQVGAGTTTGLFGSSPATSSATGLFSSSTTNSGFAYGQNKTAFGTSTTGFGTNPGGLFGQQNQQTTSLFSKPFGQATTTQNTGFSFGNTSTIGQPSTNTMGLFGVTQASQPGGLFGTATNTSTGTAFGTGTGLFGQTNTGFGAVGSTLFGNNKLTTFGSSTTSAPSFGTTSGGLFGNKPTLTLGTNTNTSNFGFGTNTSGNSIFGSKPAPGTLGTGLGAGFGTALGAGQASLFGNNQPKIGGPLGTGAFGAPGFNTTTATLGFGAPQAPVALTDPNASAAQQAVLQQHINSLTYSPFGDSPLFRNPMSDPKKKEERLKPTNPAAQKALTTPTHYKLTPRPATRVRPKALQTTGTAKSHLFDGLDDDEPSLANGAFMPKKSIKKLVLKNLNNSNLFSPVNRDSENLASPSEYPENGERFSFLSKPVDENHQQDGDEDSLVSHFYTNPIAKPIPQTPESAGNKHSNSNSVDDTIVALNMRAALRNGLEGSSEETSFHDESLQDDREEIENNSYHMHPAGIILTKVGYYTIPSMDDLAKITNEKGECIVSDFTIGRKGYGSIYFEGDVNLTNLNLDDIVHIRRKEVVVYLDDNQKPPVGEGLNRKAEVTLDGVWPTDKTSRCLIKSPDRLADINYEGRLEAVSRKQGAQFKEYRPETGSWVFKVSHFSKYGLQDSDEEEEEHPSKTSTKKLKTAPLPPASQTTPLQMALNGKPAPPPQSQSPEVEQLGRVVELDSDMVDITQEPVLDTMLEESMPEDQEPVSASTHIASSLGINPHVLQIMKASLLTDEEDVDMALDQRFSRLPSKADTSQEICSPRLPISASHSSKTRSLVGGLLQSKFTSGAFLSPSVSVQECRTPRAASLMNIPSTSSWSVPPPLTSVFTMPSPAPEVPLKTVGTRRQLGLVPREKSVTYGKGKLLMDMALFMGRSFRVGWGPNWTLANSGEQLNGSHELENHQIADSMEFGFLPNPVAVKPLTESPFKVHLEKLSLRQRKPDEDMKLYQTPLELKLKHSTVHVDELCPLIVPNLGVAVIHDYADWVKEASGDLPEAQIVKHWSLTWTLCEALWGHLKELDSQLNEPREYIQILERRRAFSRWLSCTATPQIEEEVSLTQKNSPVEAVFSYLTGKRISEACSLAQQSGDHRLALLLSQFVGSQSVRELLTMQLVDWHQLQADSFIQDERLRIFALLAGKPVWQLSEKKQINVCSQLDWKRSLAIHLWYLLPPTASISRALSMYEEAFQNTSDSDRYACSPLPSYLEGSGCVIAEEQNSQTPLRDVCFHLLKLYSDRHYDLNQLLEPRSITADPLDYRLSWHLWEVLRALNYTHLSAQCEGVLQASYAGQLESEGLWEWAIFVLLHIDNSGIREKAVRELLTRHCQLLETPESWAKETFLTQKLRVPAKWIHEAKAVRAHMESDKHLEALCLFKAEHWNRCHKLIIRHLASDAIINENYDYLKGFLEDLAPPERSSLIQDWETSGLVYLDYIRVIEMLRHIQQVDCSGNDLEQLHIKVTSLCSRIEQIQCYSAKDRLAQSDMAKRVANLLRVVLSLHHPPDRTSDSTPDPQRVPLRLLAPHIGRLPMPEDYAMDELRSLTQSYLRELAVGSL
UniProt Q56VL3: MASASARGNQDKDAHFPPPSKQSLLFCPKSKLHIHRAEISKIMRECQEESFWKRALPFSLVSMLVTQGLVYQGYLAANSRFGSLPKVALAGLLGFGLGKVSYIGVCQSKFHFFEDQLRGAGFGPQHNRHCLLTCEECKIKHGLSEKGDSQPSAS
UniProt Q14980: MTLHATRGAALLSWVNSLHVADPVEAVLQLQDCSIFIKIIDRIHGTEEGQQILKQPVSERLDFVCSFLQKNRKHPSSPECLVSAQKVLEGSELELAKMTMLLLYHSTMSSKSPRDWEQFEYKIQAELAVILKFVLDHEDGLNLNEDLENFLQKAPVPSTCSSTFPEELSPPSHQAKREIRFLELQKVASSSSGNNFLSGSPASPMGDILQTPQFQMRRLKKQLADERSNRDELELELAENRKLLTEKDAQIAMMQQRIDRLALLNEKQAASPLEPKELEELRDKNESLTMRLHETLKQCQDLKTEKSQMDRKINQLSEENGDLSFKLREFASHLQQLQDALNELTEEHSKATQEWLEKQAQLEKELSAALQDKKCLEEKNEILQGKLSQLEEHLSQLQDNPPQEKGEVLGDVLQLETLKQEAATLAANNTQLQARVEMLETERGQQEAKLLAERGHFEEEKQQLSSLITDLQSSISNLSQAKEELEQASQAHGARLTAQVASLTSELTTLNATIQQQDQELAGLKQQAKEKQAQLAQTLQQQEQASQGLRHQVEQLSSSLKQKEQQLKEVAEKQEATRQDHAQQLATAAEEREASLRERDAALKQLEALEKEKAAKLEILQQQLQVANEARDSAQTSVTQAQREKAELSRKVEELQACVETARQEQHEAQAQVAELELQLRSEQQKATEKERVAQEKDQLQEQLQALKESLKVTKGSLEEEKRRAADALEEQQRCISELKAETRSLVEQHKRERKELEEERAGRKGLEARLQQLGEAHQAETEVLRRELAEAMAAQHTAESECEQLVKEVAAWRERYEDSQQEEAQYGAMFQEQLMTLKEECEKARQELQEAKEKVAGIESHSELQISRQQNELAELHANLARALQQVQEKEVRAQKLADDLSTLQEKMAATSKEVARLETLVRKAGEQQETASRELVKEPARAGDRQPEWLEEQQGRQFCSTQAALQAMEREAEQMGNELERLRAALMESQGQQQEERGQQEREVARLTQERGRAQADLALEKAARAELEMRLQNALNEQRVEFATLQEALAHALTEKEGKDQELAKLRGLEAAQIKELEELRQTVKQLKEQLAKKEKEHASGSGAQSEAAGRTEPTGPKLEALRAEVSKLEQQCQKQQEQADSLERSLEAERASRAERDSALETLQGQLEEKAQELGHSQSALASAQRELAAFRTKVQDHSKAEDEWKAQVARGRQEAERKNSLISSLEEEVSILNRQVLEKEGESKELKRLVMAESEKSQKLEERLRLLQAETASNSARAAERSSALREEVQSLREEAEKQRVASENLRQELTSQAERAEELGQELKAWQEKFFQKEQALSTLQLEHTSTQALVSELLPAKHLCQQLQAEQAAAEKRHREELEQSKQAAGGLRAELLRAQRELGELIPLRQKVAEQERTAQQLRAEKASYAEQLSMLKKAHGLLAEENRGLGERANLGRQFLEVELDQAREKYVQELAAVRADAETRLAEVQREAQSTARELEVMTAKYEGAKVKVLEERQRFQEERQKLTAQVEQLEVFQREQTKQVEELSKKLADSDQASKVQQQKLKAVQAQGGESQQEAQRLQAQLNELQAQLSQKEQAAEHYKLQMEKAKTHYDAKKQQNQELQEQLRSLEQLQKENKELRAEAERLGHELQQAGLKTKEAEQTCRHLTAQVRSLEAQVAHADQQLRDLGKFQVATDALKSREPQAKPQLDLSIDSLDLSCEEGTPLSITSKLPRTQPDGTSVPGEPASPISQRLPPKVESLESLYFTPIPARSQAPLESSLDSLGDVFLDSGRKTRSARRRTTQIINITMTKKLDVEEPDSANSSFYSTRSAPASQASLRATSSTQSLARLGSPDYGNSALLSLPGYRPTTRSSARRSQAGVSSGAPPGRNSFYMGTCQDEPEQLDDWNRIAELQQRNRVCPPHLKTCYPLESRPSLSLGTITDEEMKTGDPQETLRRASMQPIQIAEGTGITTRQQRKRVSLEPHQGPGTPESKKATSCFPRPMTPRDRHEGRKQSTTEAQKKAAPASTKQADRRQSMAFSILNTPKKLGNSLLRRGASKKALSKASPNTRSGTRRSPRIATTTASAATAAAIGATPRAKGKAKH
UniProt Q9Y5Y2: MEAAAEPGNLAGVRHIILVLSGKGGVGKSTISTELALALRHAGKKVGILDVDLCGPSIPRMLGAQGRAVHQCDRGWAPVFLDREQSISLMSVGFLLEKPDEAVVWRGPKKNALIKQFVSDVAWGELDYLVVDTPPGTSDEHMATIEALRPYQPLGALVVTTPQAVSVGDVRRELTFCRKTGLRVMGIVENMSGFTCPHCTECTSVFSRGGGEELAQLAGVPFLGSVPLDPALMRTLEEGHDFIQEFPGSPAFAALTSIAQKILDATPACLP
UniProt Q01968: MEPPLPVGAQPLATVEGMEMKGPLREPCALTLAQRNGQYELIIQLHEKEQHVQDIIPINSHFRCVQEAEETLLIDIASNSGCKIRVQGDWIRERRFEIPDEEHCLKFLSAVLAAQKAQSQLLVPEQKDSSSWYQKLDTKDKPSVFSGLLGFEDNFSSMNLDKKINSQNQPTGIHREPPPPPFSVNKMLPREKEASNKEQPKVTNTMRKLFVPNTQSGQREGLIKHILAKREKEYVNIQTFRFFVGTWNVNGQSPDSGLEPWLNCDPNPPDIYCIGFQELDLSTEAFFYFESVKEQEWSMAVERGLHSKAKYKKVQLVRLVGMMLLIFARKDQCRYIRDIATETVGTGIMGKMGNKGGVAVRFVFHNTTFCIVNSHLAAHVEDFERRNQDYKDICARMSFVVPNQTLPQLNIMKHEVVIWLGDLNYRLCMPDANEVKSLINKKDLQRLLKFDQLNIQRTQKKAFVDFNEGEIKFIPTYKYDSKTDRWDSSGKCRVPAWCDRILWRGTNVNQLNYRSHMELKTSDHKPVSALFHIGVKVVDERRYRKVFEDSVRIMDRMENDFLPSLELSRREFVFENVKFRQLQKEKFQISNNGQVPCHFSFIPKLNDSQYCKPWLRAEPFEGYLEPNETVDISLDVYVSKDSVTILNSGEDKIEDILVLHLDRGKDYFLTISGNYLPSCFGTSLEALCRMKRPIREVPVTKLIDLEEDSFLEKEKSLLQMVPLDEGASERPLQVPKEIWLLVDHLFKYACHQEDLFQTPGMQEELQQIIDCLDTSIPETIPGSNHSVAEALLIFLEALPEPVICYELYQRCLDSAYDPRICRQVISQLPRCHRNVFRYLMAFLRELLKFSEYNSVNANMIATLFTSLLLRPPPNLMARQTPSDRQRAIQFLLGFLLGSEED
UniProt P57740: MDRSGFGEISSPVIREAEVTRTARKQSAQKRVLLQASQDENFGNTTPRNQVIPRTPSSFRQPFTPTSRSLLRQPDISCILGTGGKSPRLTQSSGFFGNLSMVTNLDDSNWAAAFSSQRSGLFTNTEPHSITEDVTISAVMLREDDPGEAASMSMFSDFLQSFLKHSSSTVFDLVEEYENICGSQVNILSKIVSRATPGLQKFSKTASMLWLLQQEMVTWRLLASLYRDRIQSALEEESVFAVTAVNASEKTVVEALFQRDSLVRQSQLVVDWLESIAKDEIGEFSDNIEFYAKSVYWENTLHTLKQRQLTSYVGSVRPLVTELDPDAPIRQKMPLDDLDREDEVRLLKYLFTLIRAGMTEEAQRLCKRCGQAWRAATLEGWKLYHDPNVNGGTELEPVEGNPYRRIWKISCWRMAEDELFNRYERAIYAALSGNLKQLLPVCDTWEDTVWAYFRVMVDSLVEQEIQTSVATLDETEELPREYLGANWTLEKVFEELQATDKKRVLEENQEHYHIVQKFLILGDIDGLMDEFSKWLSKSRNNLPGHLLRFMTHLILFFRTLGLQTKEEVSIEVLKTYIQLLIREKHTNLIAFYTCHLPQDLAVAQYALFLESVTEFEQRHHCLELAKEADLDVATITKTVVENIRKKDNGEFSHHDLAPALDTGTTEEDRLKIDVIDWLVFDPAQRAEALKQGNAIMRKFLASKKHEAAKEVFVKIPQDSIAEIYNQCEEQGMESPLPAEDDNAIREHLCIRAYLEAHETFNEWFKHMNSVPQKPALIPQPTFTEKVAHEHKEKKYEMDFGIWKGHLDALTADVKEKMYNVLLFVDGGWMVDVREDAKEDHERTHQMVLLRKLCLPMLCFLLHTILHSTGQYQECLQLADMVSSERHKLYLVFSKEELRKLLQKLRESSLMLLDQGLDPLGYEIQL

Compound in the test: Cc1cc(ccc1-c1ccccc1)C(=O)N1CCCN(CC1)C(=O)CCl [compound 10]
Nature of the test: probe-labelled cysteine peptide fold change vs DMSO (competition) (log2 fold change); higher = less target engagement (more negative = stronger competition). As to conditions: THP-1, incubation time: 4 h.

Some of the results follow.
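Further: competitive profiling in live THP-1 cells: cysteine peptides tagged with an iodoacetamide desthiobiotin (IA-DTB) probe, intensity after compound treatment relative to DMSO-treated cells.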

As for “NUDCD1_Q96RS6_32_LSLEPLPCYQLELDAAVAEVK (UniProt Q96RS6)”, the “probe-labelled cysteine peptide fold change” value runs as follows: (10 µM) -0.0441; (50 µM) 0.242.

Regarding “NVL_O15381_431_EICLGIPDEASR (UniProt O15381)”, the “probe-labelled cysteine peptide fold change” value runs as follows: (10 µM) 0.0387; (50 µM) 0.275.

As for “NUMB_P49757_611_HTEVPTGTCPVDPFEAQWAALENK (UniProt P49757)”, the “probe-labelled cysteine peptide fold change” value (10 µM) is -0.152 and the “probe-labelled cysteine peptide fold change” value (50 µM) is -0.381.

“NUP188_Q5SRE5_161_VEYADCVDK (UniProt Q5SRE5)”: the “probe-labelled cysteine peptide fold change” value (10 µM) was determined as 0.0699 and the “probe-labelled cysteine peptide fold change” value (50 µM) was found to be 0.497.

For “OAS1_P00973_25_FIEDYLLPDTCFR (UniProt P00973)”, the “probe-labelled cysteine peptide fold change” value (10 µM) was -0.402 and the “probe-labelled cysteine peptide fold change” value (50 µM) was -0.388.

Consider “NUP85_Q9BW27_603_CLEDLTSR (UniProt Q9BW27)”, for which the “probe-labelled cysteine peptide fold change” value reads like this: (10 µM) 0.00808; (50 µM) 0.173.

For “NUP43_Q8NFH3_222_QQGNEPSQILSLTGDRVPLHCVDR (UniProt Q8NFH3)”, the “probe-labelled cysteine peptide fold change” value is -0.0219 (10 µM) and 0.0145 (50 µM).

In the case of “NUB1_Q9Y5A7_400_ACDGNVDHAATHITNR (UniProt Q9Y5A7)”, the “probe-labelled cysteine peptide fold change” value runs as follows: (10 µM) 0.157; (50 µM) 0.0323.

For the target “NXF1_Q9UBU9_328_LEELWLDGNSLCDTFR (UniProt Q9UBU9)”, the “probe-labelled cysteine peptide fold change” value reads like this: (10 µM) 0.246; (50 µM) 0.303.

In the case of “NUP160_Q12769_558_FYACCLQYQEALSHPLALHLNPHTNMVCLLK (UniProt Q12769)”, the “probe-labelled cysteine peptide fold change” value stood at 0.194 (10 µM) and 0.31 (50 µM).

With “NUP98_P52948_1711_HIQQVDCSGNDLEQLHIK (UniProt P52948)”, the “probe-labelled cysteine peptide fold change” value (10 µM) amounted to 0.166 and the “probe-labelled cysteine peptide fold change” value (50 µM) amounted to 0.0136.

Consider “NUBPL_Q8TB37_244_VHVPVLGLVQNMSVFQCPK (UniProt Q8TB37)”, for which the “probe-labelled cysteine peptide fold change” value by setting is: (10 µM) 0.14; (50 µM) 0.0845.

As to “OCIAD2_Q56VL3_130_HCLLTCEECK (UniProt Q56VL3)”, the “probe-labelled cysteine peptide fold change” value (10 µM) is -0.0517 and the “probe-labelled cysteine peptide fold change” value (50 µM) was -0.25.

Take “NUMA1_Q14980_80_HPSSPECLVSAQK (UniProt Q14980)”: the “probe-labelled cysteine peptide fold change” value by setting is: (10 µM) -0.09; (50 µM) -0.146.

Regarding “ODF2_Q5BJF6_136_KIDSLMNAVGCLK (UniProt Q5BJF6)”, the “probe-labelled cysteine peptide fold change” value was -0.00955 (10 µM) and -0.128 (50 µM).

On to “NUDT14_O95848_127_EAWEECGYHLAPSDLR (UniProt O95848)”, for which the “probe-labelled cysteine peptide fold change” value by setting is: (10 µM) -0.0835; (50 µM) 0.0546.

Consider “NTPCR_Q9BSD7_101_NADCSSGPGQR (UniProt Q9BSD7)”, for which the “probe-labelled cysteine peptide fold change” value (10 µM) worked out at 0.646 and the “probe-labelled cysteine peptide fold change” value (50 µM) was 0.828.

In the case of “NUDT18_Q6ZVK8_100_EEAGLHCEPETLLSVEER (UniProt Q6ZVK8)”, the “probe-labelled cysteine peptide fold change” value reads like this: (10 µM) -0.257; (50 µM) 0.151.

In the case of “OGA_O60502_896_LGCFEIAK (UniProt O60502)”, the “probe-labelled cysteine peptide fold change” value reads like this: (10 µM) 0.187; (50 µM) -0.238.

Take “NUP205_Q92621_1297_QLVEIILTACPQDLIQAEDR (UniProt Q92621)”: the “probe-labelled cysteine peptide fold change” value by setting is: (10 µM) 0.422; (50 µM) 0.366.

Turning to “OARD1_Q9Y530_38_TDSLAHCISEDCR (UniProt Q9Y530)”, the “probe-labelled cysteine peptide fold change” value by setting is: (10 µM) 0.0354; (50 µM) -0.125.

On to “NUP85_Q9BW27_112_ACMEEMHQVAIAAK (UniProt Q9BW27)”, for which the “probe-labelled cysteine peptide fold change” value (10 µM) is 0.143 and the “probe-labelled cysteine peptide fold change” value (50 µM) is 0.0463.

Take “OBSL1_O75147_412_LKADDDGIYLCEMR (UniProt O75147)”: the “probe-labelled cysteine peptide fold change” value is, setting by setting: (10 µM) 0.107; (50 µM) 0.00258.

For “NUMA1_Q14980_80_KHPSSPECLVSAQK (UniProt Q14980)”, the “probe-labelled cysteine peptide fold change” value (10 µM) was found to be 0.0544 and the “probe-labelled cysteine peptide fold change” value (50 µM) was -0.524.

Consider “NUBP2_Q9Y5Y2_177_RELTFCR (UniProt Q9Y5Y2)”, for which the “probe-labelled cysteine peptide fold change” value is -0.0503 (10 µM) and 0.0238 (50 µM).

“OCRL_Q01968_64+82_CVQEAEETLLIDIASNSGCK (UniProt Q01968)”: the “probe-labelled cysteine peptide fold change” value reads like this: (10 µM) -0.0892; (50 µM) -0.302.

In the case of “NUBP2_Q9Y5Y2_202_VMGIVENMSGFTCPHCTECTSVFSR (UniProt Q9Y5Y2)”, the “probe-labelled cysteine peptide fold change” value runs as follows: (10 µM) 0.103; (50 µM) -0.187.

Consider “NUP37_Q8NFH4_96_FCTSAADMK (UniProt Q8NFH4)”, for which the “probe-labelled cysteine peptide fold change” value is, setting by setting: (10 µM) 0.068; (50 µM) -0.0419.

With “NUP107_P57740_78_QPDISCILGTGGK (UniProt P57740)”, the “probe-labelled cysteine peptide fold change” value runs as follows: (10 µM) -0.271; (50 µM) -0.718.

On to “NUP133_Q8WUM0_530_AAFLQYCR (UniProt Q8WUM0)”, for which the “probe-labelled cysteine peptide fold change” value is, setting by setting: (10 µM) 0.0364; (50 µM) -0.0191.

Consider “NUP58_Q9BVL2_252_ALKDENLPPVICQDVENLQK (UniProt Q9BVL2)”, for which the “probe-labelled cysteine peptide fold change” value runs as follows: (10 µM) -0.348; (50 µM) -0.312.

As for “NUP107_P57740_749_EHLCIR (UniProt P57740)”, the “probe-labelled cysteine peptide fold change” value (10 µM) amounted to 0.0299 and the “probe-labelled cysteine peptide fold change” value (50 µM) was determined as 0.19.

Turning to “NUP153_P49790_874_CLACESAKPGTK (UniProt P49790)”, the “probe-labelled cysteine peptide fold change” value runs as follows: (10 µM) 0.15; (50 µM) -0.253.

“NUF2_Q9BZD4_377_TVIEDCNK (UniProt Q9BZD4)”: the “probe-labelled cysteine peptide fold change” value (10 µM) is -0.234 and the “probe-labelled cysteine peptide fold change” value (50 µM) is -0.167.

As to “NUP93_Q8N1F7_209_IVNGHLQPNLVDLCASVAELDDK (UniProt Q8N1F7)”, the “probe-labelled cysteine peptide fold change” value is, setting by setting: (10 µM) 0.0846; (50 µM) 0.117.

As to “NUP98_P52948_760_GECIVSDFTIGR (UniProt P52948)”, the “probe-labelled cysteine peptide fold change” value runs as follows: (10 µM) 0.0918; (50 µM) 0.222.

Consider “OCIAD2_Q56VL3_106_VSYIGVCQSK (UniProt Q56VL3)”, for which the “probe-labelled cysteine peptide fold change” value (10 µM) is -0.21 and the “probe-labelled cysteine peptide fold change” value (50 µM) is -0.000731.

As for “NUP98_P52948_1419_KQINVCSQLDWK (UniProt P52948)”, the “probe-labelled cysteine peptide fold change” value was -0.217 (10 µM) and 0.161 (50 µM).

For the target “NUDT12_Q9BQG2_247_QRHENCYFLHPPMPALLQLK (UniProt Q9BQG2)”, the “probe-labelled cysteine peptide fold change” value reads like this: (10 µM) -0.0681; (50 µM) -0.116.

As for “OGDH_Q02218_802_FLQMCNDDPDVLPDLK (UniProt Q02218)”, the “probe-labelled cysteine peptide fold change” value runs as follows: (10 µM) -0.0106; (50 µM) 0.0622.

On to “NUDT2_P50583_143_AALQEGHQFLCSIEA (UniProt P50583)”, for which the “probe-labelled cysteine peptide fold change” value (10 µM) was 0.05 and the “probe-labelled cysteine peptide fold change” value (50 µM) was determined as 0.0308.

Regarding “OCRL_Q01968_28_GPLREPCALTLAQR (UniProt Q01968)”, the “probe-labelled cysteine peptide fold change” value runs as follows: (10 µM) 0.0735; (50 µM) 0.0454.
